Source: PubChem BioAssay AID504465 (National Center for Advancing Translational Sciences (NCATS), 2011)
Screen size: about 2,100 compounds; about 210 (10%) were called active. The shares of active, inactive and inconclusive entries below differ from those in the screen. The call rests on the fitted dose curve; in most records, active means well fitted inhibition curve with a large enough effect; inconclusive means small, poorly fitted or top-dose-only effect, or effect the other way; inactive means no such curve, though single readings can be large or run the other way. Where the call is inconclusive, the potency comes from a doubtful curve fit.

Experiment: IN Cell qHTS Assay for Inhibitors of the mTORC1 Signaling Pathway in MEF (Tsc2-/-, p53-/-) Cells: Sytravon; further: nearly all actives have a fitted effect of over 60% in size
Conditions: phospho-rpS6 immunofluorescence, 24 h; activity, negative = inhibition: at 38.3 µM (top of the series)
Method in brief: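 Immunofluorescence of rpS6 phosphorylation (Ser235/236) in mouse embryonic fibroblasts lacking Tsc2 and p53, after 24 h compound exposure; Hoechst-normalized signal imaged, each well scored as % active cells relative to rapamycin (7.5 nM) and DMSO controls.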
Potency means the concentration at half of the fitted maximal effect.

Row | Structure (SMILES) | activity, negative = inhibition | Potency
1 | CCOc1ccccc1NC(=O)Cn1ccn(Cc2ccc(C)cc2)c(=O)c1=O | inactive: -8.7% | 
2 | Cc1ccc(CN(Cc2ccco2)C(=O)COc2ccc(C(C)C)cc2)cc1 |  | inconclusive: 26.1 µM [falling, single point]
3 | CCOc1ccc(CNCc2c(C(=O)O)n(Cc3ccc(C)cc3)c3cc(C)ccc23)cc1 |  | inconclusive: 16.5 µM [falling, single point]
4 | Cc1ccccc1Nc1ncnc2c1cnn2C |  | inconclusive: 0.369 µM [activator, full curve, poor fit]
5 | Cc1cc(C)cc(NC(=O)C2CCCN(C(=O)c3cnn(-c4ccccc4)c3-n3cccc3)C2)c1 (configuration not stated) |  | inconclusive: 11.7 µM [falling, partial curve]
6 | Cc1ccc(-c2noc(CN(C3CCCCC3)S(=O)(=O)c3ccc(C)cc3)n2)cc1 |  | inconclusive: 16.5 µM [falling, single point]
7 | Cc1ccc(O)c(C(CC(=O)NCC2(c3ccccc3)CCCC2)c2ccccc2)c1 (configuration not stated) |  | inconclusive: 26.1 µM [falling, single point]
8 | CCOc1ccc(-c2nonc2NC(=O)c2oc3cc(C)ccc3c2C)cc1 |  | inconclusive: 16.5 µM [falling, partial curve, poor fit]
9 | Cc1cc(C)cc(C(=O)Nc2ccc(-c3nc4ncccc4o3)cc2)c1 |  | inconclusive: 11.7 µM [falling, partial curve, poor fit]
10 | CCc1ccc(N=C2NC(=O)CC(C(=O)Nc3ccc(OC)cc3)S2)cc1 (configuration not stated) | inactive: 15.4% | 
11 | O=C(Cn1c(=O)c2cccn2c2ccccc21)NCc1ccccc1F |  | inconclusive: 0.233 µM [falling, full curve, poor fit]
12 | COc1cc(Nc2nc(SCC(=O)c3ccc(Cl)c(Cl)c3)nc3ccccc23)cc(OC)c1 | inactive: -6.06% | 
13 | COc1c(C)cc(Br)cc1C(=O)Nc1ccc(-c2nc3ncccc3o2)cc1 | inactive: 3.45% | 
14 | CCn1c2ccccc2c2cc(CN3CCN(Cc4ccc(OC)c(OC)c4)CC3)ccc21 |  | inconclusive: 16.5 µM [falling, single point]
15 | COc1ccc(C(C(=O)Nc2ccc(C(C)C)cc2)N(C)C(=O)Cc2cccs2)cc1 (configuration not stated) |  | inconclusive: 23.3 µM [falling, single point]
16 | O=C(CSc1ccc(-c2ccccn2)nn1)Nc1ccc(F)c(F)c1 |  | inconclusive: 3.29 µM [falling, full curve, poor fit]
17 | COc1ccc(OC)c(NC2=C(c3ccccc3)C(=O)c3ccccc32)c1 | inactive: -54.5% | 
18 | CCc1ccccc1N(C)C(=O)c1cn(CC(C)C)c(=O)c2cc(OC)c(OC)cc12 |  | inconclusive: 0.0041 µM [activator, full curve, poor fit]
19 | O=C(Nc1ccc2oc(-c3ccc(O)c(Br)c3)nc2c1)c1cc2ccccc2o1 |  | inconclusive: 5.85 µM [falling, partial curve, poor fit]
20 | CCOC(=O)c1cccc(NC(=O)c2cc3sccc3n2Cc2ccc(Cl)cc2)c1 | inactive: -32.5% | 
21 | CC(C)(C)c1ccc(S(=O)(=O)NCc2ccc3c(c2)CCN3C(=O)c2ccccc2)cc1 | inactive: 2.27% | 

Row | Structure (SMILES) | activity, negative = inhibition | Potency
22 | Cc1ccc(S(=O)(=O)Cc2ccc(C(=O)N3CCN(c4cccc(C)c4C)CC3)o2)cc1 | inactive: 0% | 
23 | CCCCN1C(=O)C(O)(CC(=O)c2ccc(CC)cc2)c2cc(Br)ccc21 (configuration not stated) |  | active: 18.5 µM
24 | CCCS(=O)(=O)c1c(S(=O)(=O)CCC)c2cc(C(C)(C)C)ccn2c1C(=O)c1ccc(OC)c(OC)c1 |  | active: 0.147 µM
25 | CCCCC(=O)Nc1nnc(S(=O)(=O)N2CCCCCC2)s1 | inactive: -15.2% | 
26 | COc1ccccc1NC(=O)CSc1nnc2c3ccccc3n(C(C)C)c2n1 |  | inconclusive: 3.69 µM [falling, full curve, poor fit]
27 | Cc1ccc(CN2CCC(CNc3ncnc4onc(-c5ccc(F)cc5)c34)CC2)cc1 |  | inconclusive: 13.1 µM [falling, single point]
28 | CCN(CC)c1cc(C)c2cc(NC(=O)c3cccc(F)c3)ccc2n1 |  | inconclusive: 14.7 µM [falling, single point]
29 | CC(C)CS(=O)(=O)c1oc(-c2ccc(F)cc2)nc1S(=O)(=O)c1ccccc1 |  | active: 0.656 µM
30 | Cc1ccc2nc(/C(C#N)=C/c3cccc(Br)c3)[nH]c2c1 | inactive: -32% | 
31 | Cc1ccc(Nc2cc(C)nc3nc(Cc4ccc(Cl)cc4)nn23)cc1 | inactive: -9.74% | 
32 | COC(=O)c1c(C)oc2ccc(N(C(=O)c3ccncc3)S(=O)(=O)c3cc(C)c(C)cc3C)cc12 |  | inconclusive: 14.7 µM [falling, single point]
33 | Cc1ccc(CN(Cc2ccco2)C(=O)COc2c(C)cc(C)cc2C)cc1 | inactive: -17% | 
34 | CCOc1ccc(NC(=O)c2sc3nc4c(cc3c2N)CCCCCC4)cc1 |  | inconclusive: 10.4 µM [falling, single point]
35 | CC1CCN(C(=O)c2c(NC(=O)c3ccccc3F)sc3c2CCC(C(C)(C)C)C3)CC1 (configuration not stated) |  | inconclusive: 1.85 µM [falling, single point]
36 | CCN1CCC(N(Cc2ccc3c(c2)OCO3)C(=O)Nc2cc(Cl)ccc2C(=O)OC)CC1 |  | inconclusive: 16.5 µM [falling, single point]
37 | O=C(CCCCn1c(=O)c2ccccc2n(Cc2ccc(Cl)cc2)c1=O)NCc1ccccc1Cl |  | inconclusive: 26.1 µM [falling, single point]
38 | COc1ccc(-c2cc(C(=O)Oc3cccc(C)c3)c3ccccc3n2)cc1 |  | inconclusive: 18.5 µM [falling, single point]
39 | Cc1ccc(C)c(N2CCN(CCCNC(=O)C3COc4ccccc4C3)CC2)c1 (configuration not stated) |  | inconclusive: 0.104 µM [falling, full curve, poor fit]
40 | COc1ccc(OCC(=O)NCC2(N3CCN(C)CC3)CCCCC2)cc1 |  | inconclusive: 0.414 µM [falling, full curve, poor fit]
41 | CCOC(=O)c1c(-c2ccccc2)oc2ccc(NS(=O)(=O)c3ccc(OC)cc3)cc12 |  | inconclusive: 4.14 µM [falling, partial curve, poor fit]
42 | Cc1ccc(Nc2c(-c3ccco3)nc3ccc(C)cn23)cc1 |  | inconclusive: 0.0041 µM [activator, full curve, poor fit]

Given as tab-separated lines: entries from further up
Row	Structure (SMILES)	activity, negative = inhibition	Potency
30	Cc1ccc2nc(/C(C#N)=C/c3cccc(Br)c3)[nH]c2c1	inactive: -32%	
31	Cc1ccc(Nc2cc(C)nc3nc(Cc4ccc(Cl)cc4)nn23)cc1	inactive: -9.74%	
